Values from PubChem BioAssay AID1671195 (Yale University, 2021)
The whole screen tested about 22,000 reagents; this is an unselected part. Of all reagents, about 1,510 (6.9%) were called active. 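Active includes knockdowns raising or lowering LDL uptake; positive z-scores mean more uptake, negative mean less.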 Unmarked entries are inactive.

Purpose: 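Regulators of LDL receptor activity judged by labelled LDL uptake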 (primary screen)
Cell system: human Huh7 hepatoma cells
Knock-down reagent: siRNA pool against human genes, 18 nM
Duration: about 2 to 2.5 days of knockdown, then 8 h LDL uptake
Challenge: DiI-labelled LDL at 30 µg/ml for 8 h, in lipoprotein-deficient serum medium
Measurement: 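Per-cell DiI-LDL intensity by automated imaging; well means scaled to the plate median and given as a robust z-score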
Reading the numbers: robust z-score: higher = more LDL uptake after knockdown
Rule for the call: 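a gene counts as active if at least two replicate z-scores exceed ±2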

Target gene | robust z-score, replicate 1 | robust z-score, replicate 2 | robust z-score, replicate 3
AMBRA1 (GeneID 55626) | 0.709 | -0.498 | 0.798
GUCD1 (GeneID 83606) | -1.32 | -0.396 | -0.602
LOC392176 (retired record) (GeneID 392176) | -0.131 | -0.246 | 0.00677
LINC01020 (GeneID 340094) | 0.152 | 0.115 | 0.218
LINC00472 (GeneID 79940) | -2.47 (active) | -2.58 | -2.37
ASIC3 (GeneID 9311) | -1.53 | -1.57 | -1.57
USP30 (GeneID 84749) | -0.304 | 0.298 | 0.36
PCDHA9 (GeneID 9752) | 2.33 (active) | 2.5 | 1.89
LINC00938 (GeneID 400027) | -0.0658 | -0.372 | -0.213
UGCG (GeneID 7357) | -2.02 (active) | -1.86 | -1.51
SLC66A3 (GeneID 130814) | 2.75 (active) | 2.61 | 3.42
TTC27 (GeneID 55622) | 4.53 (active) | 2.83 | 4.52
TTBK1 (GeneID 84630) | -0.248 | -0.518 | -0.0623
YJU2B (GeneID 81576) | -0.628 | -1.42 | -0.891
LOC442044 (retired record) (GeneID 442044) | 1.08 | 0.794 | -0.121
NDUFB5 (GeneID 4711) | -1.05 | -1.79 | -1.69

The list goes on, starting with the last 6 of the part before.
Target gene | robust z-score, replicate 1 | robust z-score, replicate 2 | robust z-score, replicate 3
SLC66A3 (GeneID 130814) | 2.75 (active) | 2.61 | 3.42
TTC27 (GeneID 55622) | 4.53 (active) | 2.83 | 4.52
TTBK1 (GeneID 84630) | -0.248 | -0.518 | -0.0623
YJU2B (GeneID 81576) | -0.628 | -1.42 | -0.891
LOC442044 (retired record) (GeneID 442044) | 1.08 | 0.794 | -0.121
NDUFB5 (GeneID 4711) | -1.05 | -1.79 | -1.69
PRSS57 (GeneID 400668) | 0.158 | 0.262 | 0.323
LTAP1 (GeneID 25912) | -0.901 | -0.509 | -0.83
MCM6 (GeneID 4175) | -0.374 | 0.493 | -0.539
EP400P1 (GeneID 347918) | -0.73 | -0.48 | -0.912
HSD11B1 (GeneID 3290) | -0.69 | -0.926 | -0.389
LOC391784 (retired record) (GeneID 391784) | -0.958 | -1.05 | -0.593
CXCR1 (GeneID 3577) | -0.645 | -1.07 | -0.307
CLSPN (GeneID 63967) | 0.41 | -0.171 | -0.208
EBLN1 (GeneID 340900) | 2.94 (active) | 3.14 | 2.38
ZC3H10 (GeneID 84872) | 0.826 | -0.187 | 1.16
DEFB126 (GeneID 81623) | -1.05 | -0.767 | -1.27
LRRC8A (GeneID 56262) | 0.525 | 0.545 | 0.411
NEUROD1 (GeneID 4760) | 0.445 | 0.322 | 0.734
LINC00326 (GeneID 285735) | 0.129 | 0.339 | 0.217
SH3RF1 (GeneID 57630) | 0.00259 | 0.569 | 0.32
ZNF107 (GeneID 51427) | -0.815 | -0.75 | -1.17
PRRG3 (GeneID 79057) | -0.638 | -0.616 | -0.192
RGPD1 (GeneID 400966) | -0.911 | -1.28 | -1.36
TERT (GeneID 7015) | -1.09 | -1.27 | -0.87
CFL1P6 (GeneID 390996) | 0.696 | 0.0353 | 0.198
STXBP2 (GeneID 6813) | -1.22 | 0.0762 | 1.42
MFSD2A (GeneID 84879) | 0.886 | 1.39 | 1.09
EEF1A1 (GeneID 1915) | -0.823 | -1.54 | -1.22
CAPG (GeneID 822) | -1.26 | -0.408 | -1.33
SUGT1 (GeneID 10910) | -0.0806 | 0.183 | -0.975
ZNF22 (GeneID 7570) | 3.09 (active) | 2.72 | 2.9
LOC256176 (retired record) (GeneID 256176) | -1.25 | -0.772 | -0.772
KLHL29 (GeneID 114818) | -0.527 | -1.85 | -1.43
SNX4 (GeneID 8723) | -0.831 | -0.706 | -0.966
RCBTB2 (GeneID 1102) | -0.0644 | -0.463 | 0.0525
